# Patent US20070212360A1, “Modulation of mitochondrial oxygen consumption for therapeutic purposes” (priority 2006, published 2007)
# For at least one compound, name, drawing or mass did not settle the structure.
# Columns and labels:
# [1] = tested on: RKO and RKOShHIF1α tumors; assay: Oxygen consumption of freshly explanted RKO tumor xenografts; format: in vivo, mouse; conditions: 50 mg/kg DCA ip 4 h prior; HIF1 dependent manner
# Description: FIG. 7. Inhibition of HIF1 and PDK1 increases oxygen consumption in vitro and in vivo. (a) Western blots of extracts from RKO and Su.86 cells exposed to normoxia (N) or hypoxia (H) (0.5% O2) for 24 h in the presence or absence of 2 ng/ml echinomycin probed for the indicated proteins. (b) Oxygen consumption rates of RKO and RKOShHIF1α cells (left) and Su.86 cells (right) after 24 h treatment with normoxia or hypoxia (0.5% O2) with or without 2 ng/ml echinomycin. Data are normalized to normoxic samples. (c) Relative oxygen consumption of RKO cells treated with hypoxia (0.5% O2) for 24 h in the presence of increasing concentrations of echinomycin. (d) Oxygen consumption rates of freshly explanted tumor tissue from RKO (n=16) and RKOShHIF1α (n=8) xenografts. (e) Oxygen consumption rates of RKO and RKOShHIF1 tumors from mice treated with 0.12 mg/kg echinomycin ip 24 h prior (n=8), or 50 mg/kg DCA ip 4 h prior (n=8). Data is normalized to PBS treated controls (n=8-16). (*) indicate a significant difference relative to control (p<0.05).
# Cell lines and tumor xenografts. […]
# Oxygen consumption measurements. […] Oxygen consumption was measured in a 0.5 ml volume using an Oxytherm electrode unit (Hansatech, Norfolk, UK). […] Oxygen consumption was measured as above in a 1 ml volume and normalized to tissue weight.
# [2] = tested on: RKO and RKOShHIF1α 5×HRE-luciferase reporter tumors; assay: Bioluminescent imaging of HRE-luciferase reporter tumors in vivo; parameters: species or system mouse; conditions: after 50 mg/kg DCA ip
# Description: FIG. 8. Increasing oxygen consumption by inhibition of PDK activity increases tumor hypoxia. (a) Luciferase activity of wildtype and HIF1α knockdown RKO cells stably transfected with a HIF1 responsive luciferase reporter gene. Cells were exposed to 0.5% O2 for 24 hours in triplicate. Luminescence is normalized to normoxic HIF wildtype cells. (b) Luciferase activity of wildtype RKO HIF1 reporter cells exposed to 0.5% O2 for 24 hours in the presence of increasing concentrations of echinomycin. Data are normalized to the increase in signal observed in the absence of drug. (c) Bioluminescent imaging in vivo. Images show a representative animal bearing an RKO reporter tumor on the left flank and an RKOShHIF1α reporter tumor on the right flank as a function of time after ip injection of 50 mg/kg DCA. […] (d) Quantification of in vivo bioluminescence. […] The data represent the mean of three independent experiments, each comprising 5 RKO and 5 RKOShHIF1α reporter tumors.
# FIG. 14. Luciferase activity of hypoxia reporter tumors in response to tirapazamine. Mice bearing 500 mm^3 RKO HRE-luciferase tumors were imaged using an IVIS100 bioluminescent imaging system, and the signal from each tumor was quantified. […]
# Bioluminescent imaging. […] After 10 min, bioluminescence was measured in a Xenogen IVIS100 imaging system (Xenogen). Data was quantified by measuring total photons/s from uniform regions of interest. […]
# [3] = tested on: RKO and RKOShHIF1α tumors; assay: Tumor growth delay, RKO and RKOShHIF1α xenografts; conditions: mouse, in vivo
# Description: FIG. 10. Pharmacologic inhibition of HIF1 or PDK1 enhances the response of tumor xenografts to the hypoxic cytotoxin tirapazamine. For all experiments, treatment was initiated when the mean tumor volume was 100-200 mm^3. (a) RKO tumor bearing mice were treated with 0.12 mg/kg echinomycin ip followed by 30 mg/kg tirapazamine ip at 24 hours, followed by a rest day for 3 cycles. Single agents were given at the same dose, on the same schedule. (b) RKO tumor bearing mice were treated with 50 mg/kg DCA ip followed by 20 mg/kg tirapazamine ip at 4 hours daily for 14 days. Single agents were given at the same dose, on the same schedule. (c,d,e) RKO (c), RKOShHIF1α (d), or Su.86 (e) tumor bearing mice were treated with echinomycin plus tirapazamine as described above for 6 cycles (Ech+TPZ), or tirapazamine followed by echinomycin at 24 hours followed by a rest day for 6 cycles (TPZ+Ech). For all experiments, arrows indicate when treatment was stopped.
# Cell lines and tumor xenografts. RKO human colon carcinoma cells and Su.86 human pancreatic carcinoma cells were obtained from the American Type Culture Collection (ATCC, Manassas, Va.). The RKOShHIF1α cell line in which HIF1α is stably knocked down by shRNA has been described previously. RKO and immortalized MEF cells were grown in Dulbecco's Modified Eagle's Media (DMEM) supplemented with 10% fetal bovine serum (FBS). […]
smiles,measurement,setting,value
"O=C(O)C(Cl)Cl [DCA, dichloroacetate]","tumor oxygen consumption, RKO tumors",[1],increased oxygen consumption
same,luciferase signal in wildtype RKO reporter tumors,[2],increased substantially
same,luciferase signal increase in HIF1 knockdown reporter tumors,[2]; RKOShHIF1α,not
same,"tumor growth delay of combination compared to single agents, RKO tumors",[3],greater than additive
